Measurements published in the supplement of paper PMC12823440, “Inhibitors supercharge kinase turnover through native proteolytic circuits” (Nature, 2025).
Structures can show the parent of a compound that is named as a salt. Some of the results follow. The calls rarely recur for the same compound in another form.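 In K562 cells expressing nanoluciferase-fused kinases, luminescence was recorded at 4 h intervals between 2 and 18 h, normalized as percent of control with DMSO at 100% and a positive control at 0%. A significant (2 sigma) signal drop marks a time point as decreased. The authors' rule for a hit is not shown and takes in more than the number of time points.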

Chains of the proteins cited; added tags and fusions are not shown. Lines headed by an entry give the natural chain unless they say otherwise; changes in a name come on top.
UniProt Q05397, whole entry, looked up: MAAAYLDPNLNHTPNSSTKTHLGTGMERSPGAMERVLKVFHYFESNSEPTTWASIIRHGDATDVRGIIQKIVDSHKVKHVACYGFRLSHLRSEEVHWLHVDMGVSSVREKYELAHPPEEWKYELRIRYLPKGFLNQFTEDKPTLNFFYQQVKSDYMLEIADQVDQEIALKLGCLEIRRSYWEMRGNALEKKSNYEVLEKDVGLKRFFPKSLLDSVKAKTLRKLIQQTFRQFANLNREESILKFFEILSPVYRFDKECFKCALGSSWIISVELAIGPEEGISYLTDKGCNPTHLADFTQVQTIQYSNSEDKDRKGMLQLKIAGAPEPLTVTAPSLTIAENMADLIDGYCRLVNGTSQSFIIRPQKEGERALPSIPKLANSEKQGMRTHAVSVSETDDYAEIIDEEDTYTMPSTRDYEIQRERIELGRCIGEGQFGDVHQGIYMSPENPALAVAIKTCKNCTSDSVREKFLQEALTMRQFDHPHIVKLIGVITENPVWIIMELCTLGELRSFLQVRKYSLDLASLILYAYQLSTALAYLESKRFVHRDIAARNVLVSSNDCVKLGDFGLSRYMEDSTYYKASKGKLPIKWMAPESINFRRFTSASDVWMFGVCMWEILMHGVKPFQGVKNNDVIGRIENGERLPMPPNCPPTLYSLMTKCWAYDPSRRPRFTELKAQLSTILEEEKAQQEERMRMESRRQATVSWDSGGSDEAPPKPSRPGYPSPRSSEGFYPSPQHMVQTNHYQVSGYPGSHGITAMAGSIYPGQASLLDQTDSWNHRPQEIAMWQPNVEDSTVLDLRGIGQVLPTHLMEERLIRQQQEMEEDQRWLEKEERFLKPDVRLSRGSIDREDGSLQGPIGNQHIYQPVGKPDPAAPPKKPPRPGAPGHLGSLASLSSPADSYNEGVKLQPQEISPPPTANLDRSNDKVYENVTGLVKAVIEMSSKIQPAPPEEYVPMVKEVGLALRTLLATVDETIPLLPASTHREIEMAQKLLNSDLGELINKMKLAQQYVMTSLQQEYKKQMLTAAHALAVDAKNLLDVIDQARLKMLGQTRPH
UniProt Q9BRS2: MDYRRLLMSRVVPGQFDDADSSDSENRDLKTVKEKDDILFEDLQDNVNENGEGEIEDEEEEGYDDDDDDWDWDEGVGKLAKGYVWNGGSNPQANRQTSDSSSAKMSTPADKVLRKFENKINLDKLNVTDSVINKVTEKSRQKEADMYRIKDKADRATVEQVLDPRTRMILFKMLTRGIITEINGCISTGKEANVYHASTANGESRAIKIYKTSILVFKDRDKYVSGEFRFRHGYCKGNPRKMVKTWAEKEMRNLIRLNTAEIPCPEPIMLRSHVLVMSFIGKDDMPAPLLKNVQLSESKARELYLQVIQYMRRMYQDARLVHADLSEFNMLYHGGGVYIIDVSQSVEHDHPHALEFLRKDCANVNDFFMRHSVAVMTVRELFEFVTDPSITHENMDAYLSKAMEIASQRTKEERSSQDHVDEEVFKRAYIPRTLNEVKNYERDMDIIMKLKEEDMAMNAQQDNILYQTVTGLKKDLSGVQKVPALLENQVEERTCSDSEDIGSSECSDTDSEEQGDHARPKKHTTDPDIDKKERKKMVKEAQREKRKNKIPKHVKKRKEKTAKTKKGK
UniProt Q13546: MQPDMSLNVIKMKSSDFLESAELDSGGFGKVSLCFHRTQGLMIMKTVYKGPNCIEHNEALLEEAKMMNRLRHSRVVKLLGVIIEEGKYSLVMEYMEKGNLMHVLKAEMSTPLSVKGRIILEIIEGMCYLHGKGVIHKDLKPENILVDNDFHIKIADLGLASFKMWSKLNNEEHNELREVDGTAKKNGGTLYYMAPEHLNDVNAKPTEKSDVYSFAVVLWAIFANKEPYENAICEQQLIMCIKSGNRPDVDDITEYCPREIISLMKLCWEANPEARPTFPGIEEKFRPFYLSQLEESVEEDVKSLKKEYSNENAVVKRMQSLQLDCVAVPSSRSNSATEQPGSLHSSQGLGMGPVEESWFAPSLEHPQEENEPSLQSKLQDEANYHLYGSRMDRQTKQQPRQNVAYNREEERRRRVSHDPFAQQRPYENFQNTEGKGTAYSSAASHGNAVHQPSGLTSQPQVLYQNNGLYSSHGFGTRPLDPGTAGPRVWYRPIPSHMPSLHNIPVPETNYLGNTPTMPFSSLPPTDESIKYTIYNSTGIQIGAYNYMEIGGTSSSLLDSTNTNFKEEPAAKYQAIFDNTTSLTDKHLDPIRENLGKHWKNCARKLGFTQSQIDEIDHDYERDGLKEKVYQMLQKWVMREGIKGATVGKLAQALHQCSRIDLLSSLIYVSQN
UniProt Q01974, whole entry: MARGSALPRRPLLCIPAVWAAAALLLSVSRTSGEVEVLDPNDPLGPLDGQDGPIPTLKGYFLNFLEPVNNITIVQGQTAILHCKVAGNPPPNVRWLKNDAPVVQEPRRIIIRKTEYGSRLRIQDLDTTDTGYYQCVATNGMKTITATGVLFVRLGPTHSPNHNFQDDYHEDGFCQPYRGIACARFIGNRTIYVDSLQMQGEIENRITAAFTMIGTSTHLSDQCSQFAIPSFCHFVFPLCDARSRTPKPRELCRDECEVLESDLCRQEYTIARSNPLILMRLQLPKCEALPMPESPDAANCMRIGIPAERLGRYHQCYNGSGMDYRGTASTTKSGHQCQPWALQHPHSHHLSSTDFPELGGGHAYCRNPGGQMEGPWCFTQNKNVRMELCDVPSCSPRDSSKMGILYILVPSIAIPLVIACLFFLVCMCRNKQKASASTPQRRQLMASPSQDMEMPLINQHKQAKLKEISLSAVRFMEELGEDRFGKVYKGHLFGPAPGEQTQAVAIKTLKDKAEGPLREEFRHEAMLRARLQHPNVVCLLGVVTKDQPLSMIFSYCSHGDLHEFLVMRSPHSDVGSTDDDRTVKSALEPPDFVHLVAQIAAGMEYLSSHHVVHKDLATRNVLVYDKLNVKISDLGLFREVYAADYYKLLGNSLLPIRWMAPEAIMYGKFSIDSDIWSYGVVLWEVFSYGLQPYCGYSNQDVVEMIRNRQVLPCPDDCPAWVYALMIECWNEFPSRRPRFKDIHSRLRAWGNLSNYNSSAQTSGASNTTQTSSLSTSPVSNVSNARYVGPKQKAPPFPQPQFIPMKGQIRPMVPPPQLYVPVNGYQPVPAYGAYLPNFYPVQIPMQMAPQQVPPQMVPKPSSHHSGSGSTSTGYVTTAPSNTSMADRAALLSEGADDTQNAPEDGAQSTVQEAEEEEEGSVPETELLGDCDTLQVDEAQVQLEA
UniProt Q9NYA1, whole entry: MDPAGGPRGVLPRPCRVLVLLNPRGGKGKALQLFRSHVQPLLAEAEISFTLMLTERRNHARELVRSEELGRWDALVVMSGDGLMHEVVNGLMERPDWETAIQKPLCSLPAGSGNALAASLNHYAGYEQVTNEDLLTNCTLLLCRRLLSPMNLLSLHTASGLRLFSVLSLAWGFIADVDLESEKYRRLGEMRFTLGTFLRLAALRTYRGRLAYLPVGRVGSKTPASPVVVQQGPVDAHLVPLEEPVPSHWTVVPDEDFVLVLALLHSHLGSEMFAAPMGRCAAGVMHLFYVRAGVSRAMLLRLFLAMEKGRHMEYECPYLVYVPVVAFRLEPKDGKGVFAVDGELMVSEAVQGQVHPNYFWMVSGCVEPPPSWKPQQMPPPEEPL
UniProt P42680: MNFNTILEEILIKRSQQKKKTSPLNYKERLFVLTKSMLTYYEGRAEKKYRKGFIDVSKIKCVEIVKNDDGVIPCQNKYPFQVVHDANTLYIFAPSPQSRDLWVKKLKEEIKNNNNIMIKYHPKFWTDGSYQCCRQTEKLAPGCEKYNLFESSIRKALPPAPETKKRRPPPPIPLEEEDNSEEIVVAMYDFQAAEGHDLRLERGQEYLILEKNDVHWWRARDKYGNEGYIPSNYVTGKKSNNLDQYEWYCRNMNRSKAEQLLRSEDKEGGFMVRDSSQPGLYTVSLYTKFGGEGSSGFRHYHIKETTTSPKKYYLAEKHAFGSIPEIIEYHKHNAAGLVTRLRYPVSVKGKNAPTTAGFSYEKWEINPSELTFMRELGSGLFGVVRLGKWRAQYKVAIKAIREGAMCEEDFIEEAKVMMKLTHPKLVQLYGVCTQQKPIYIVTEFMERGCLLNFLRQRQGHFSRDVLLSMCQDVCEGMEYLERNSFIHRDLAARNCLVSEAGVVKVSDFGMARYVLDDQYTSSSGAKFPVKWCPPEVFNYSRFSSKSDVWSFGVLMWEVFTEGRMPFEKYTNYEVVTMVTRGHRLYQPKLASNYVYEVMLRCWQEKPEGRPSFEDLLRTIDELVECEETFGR
UniProt P29597: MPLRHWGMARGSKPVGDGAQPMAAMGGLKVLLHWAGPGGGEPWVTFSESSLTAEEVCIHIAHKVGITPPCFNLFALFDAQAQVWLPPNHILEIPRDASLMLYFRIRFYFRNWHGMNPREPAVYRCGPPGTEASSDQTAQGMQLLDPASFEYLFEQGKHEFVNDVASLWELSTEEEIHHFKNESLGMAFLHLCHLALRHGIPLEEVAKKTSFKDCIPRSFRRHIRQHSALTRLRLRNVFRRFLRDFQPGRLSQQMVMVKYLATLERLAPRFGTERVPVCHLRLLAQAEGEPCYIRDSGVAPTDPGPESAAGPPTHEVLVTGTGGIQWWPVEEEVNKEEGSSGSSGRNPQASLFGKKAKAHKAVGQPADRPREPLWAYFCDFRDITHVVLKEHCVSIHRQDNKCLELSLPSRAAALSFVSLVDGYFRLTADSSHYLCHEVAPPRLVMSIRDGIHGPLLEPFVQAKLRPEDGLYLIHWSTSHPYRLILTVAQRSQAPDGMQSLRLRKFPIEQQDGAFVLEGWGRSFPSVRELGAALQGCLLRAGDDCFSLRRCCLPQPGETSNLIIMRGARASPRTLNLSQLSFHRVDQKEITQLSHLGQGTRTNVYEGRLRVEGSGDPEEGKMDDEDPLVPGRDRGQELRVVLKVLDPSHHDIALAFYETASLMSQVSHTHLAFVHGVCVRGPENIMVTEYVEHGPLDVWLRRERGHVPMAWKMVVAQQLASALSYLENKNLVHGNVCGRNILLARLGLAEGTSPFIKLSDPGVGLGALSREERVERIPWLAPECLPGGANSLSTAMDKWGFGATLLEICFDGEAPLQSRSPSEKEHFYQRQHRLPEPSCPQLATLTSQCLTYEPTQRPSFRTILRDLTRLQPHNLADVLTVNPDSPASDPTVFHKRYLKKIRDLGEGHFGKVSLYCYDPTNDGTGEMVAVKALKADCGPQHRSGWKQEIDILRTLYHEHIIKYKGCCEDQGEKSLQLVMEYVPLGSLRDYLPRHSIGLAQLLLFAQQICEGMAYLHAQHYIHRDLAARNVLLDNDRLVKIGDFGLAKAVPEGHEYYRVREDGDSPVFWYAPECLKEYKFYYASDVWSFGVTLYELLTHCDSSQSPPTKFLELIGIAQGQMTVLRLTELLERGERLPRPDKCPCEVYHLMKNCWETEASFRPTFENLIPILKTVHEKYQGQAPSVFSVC
UniProt Q6PHR2: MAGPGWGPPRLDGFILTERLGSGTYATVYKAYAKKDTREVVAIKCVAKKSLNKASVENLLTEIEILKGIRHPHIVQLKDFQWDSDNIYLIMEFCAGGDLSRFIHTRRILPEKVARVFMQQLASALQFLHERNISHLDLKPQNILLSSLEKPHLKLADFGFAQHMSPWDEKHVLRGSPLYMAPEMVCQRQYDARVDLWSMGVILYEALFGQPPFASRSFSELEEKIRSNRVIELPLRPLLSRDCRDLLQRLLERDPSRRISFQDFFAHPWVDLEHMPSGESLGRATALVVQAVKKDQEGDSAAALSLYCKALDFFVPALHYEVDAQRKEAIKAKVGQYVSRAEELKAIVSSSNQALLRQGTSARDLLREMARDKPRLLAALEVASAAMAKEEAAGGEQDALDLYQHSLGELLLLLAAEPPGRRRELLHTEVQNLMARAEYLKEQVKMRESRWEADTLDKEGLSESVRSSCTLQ

What was measured:
Assay in all cases: number of time points (of 5) at which kinase-Nluc abundance scored as decreased, DMSO-normalised (count); higher = more persistent destabilization
Conditions in all cases: K562; 2-18 h
PRKCA = PRKCA (UniProt P17252)
PTK2 = PTK2 (UniProt Q05397)
PTK2B = PTK2B (UniProt Q14289)
RAF1 = RAF1 (UniProt P04049)
[1] = target: RAF1_S257L (clone: RAF1_mut) (UniProt P04049)
RET = RET (UniProt P07949)
[2] = target: RET_M918T (clone: RET_mut) (UniProt P07949)
RIOK1 = RIOK1 (UniProt Q9BRS2)
RIPK1 = RIPK1 (UniProt Q13546)
RIPK2 = RIPK2 (UniProt O43353)
ROR2 = ROR2 (UniProt Q01974)
RPS6KA1 = RPS6KA1 (UniProt Q15418)
SPHK1 = SPHK1 (UniProt Q9NYA1)
SRC = SRC (UniProt P12931)
STK24 = STK24 (UniProt Q9Y6E0)
STK38 = STK38 (UniProt Q15208)
SYK = SYK (UniProt P43405)
TEC = TEC (UniProt P42680)
TYK2 = TYK2 (UniProt P29597)
ULK3 = ULK3 (UniProt Q6PHR2)

Compound | number of time points (PRKCA) | number of time points (PTK2) | number of time points (PTK2B) | number of time points (RAF1) | number of time points [1] | number of time points (RET) | number of time points [2] | number of time points (RIOK1) | number of time points (RIPK1) | number of time points (RIPK2) | number of time points (ROR2) | number of time points (RPS6KA1) | number of time points (SPHK1) | number of time points (SRC) | number of time points (STK24) | number of time points (STK38) | number of time points (SYK) | number of time points (TEC) | number of time points (TYK2) | number of time points (ULK3)
COc1ccc2cc3[n+](cc2c1OC)CCc1cc(O)c(O)cc1-3 [Demethyleneberberine] (10 µM) | 0 | 0 | 0 | 0 | 0 | 0 | 0 | 0 | 0 | 0 | 0 | 0 | 0 | 0 | 0 | 0 | 0 | 0 | 0 | 0
CN1C(=O)[C@@H](NC(=O)c2n[nH]c(Cc3ccccc3)n2)COc2ccccc21 (10 µM) | 0 | 0 | 0 | 0 | 0 | 0 | 0 | 0 | 0 | 0 | 0 | 0 | 0 | 0 | 0 | 0 | 0 | 0 | 0 | 0
CC/C(=N\NC(=O)c1ccnc(NCCCN2CCOCC2)c1)c1ccc(Cl)cc1O (2.5 µM) | 0 | 0 | 0 | 0 | 0 | 0 | 0 | 0 | 0 | 0 | 0 | 0 | 0 | 0 | 0 | 0 | 0 | 0 | 0 | 0
Cc1cnc(-c2ccc(-c3ccc(NC(=O)Nc4cccc(C(F)(F)F)c4)cc3F)c3c2C(=O)NC3)[nH]1 (10 µM) | 0 | 4 | 0 | 0 | 3 | 0 | 0 | 1 | 2 | 2 | 0 | 0 | 0 | 0 | 0 | 1 | 0 | 0 | 2 | 2
Cc1ccn2c(C(=O)C(=O)c3ccccc3)c(-c3ccccc3)nc2c1 (10 µM) | 0 | 0 | 0 | 0 | 0 | 0 | 0 | 0 | 0 | 0 | 0 | 0 | 0 | 0 | 0 | 0 | 0 | 0 | 0 | 0
O=C1/C(=C\c2ccc(Cl)cc2)C=C(c2ccccc2)N1c1ccc(O)cc1 (2.5 µM) | 0 | 0 | 0 | 0 | 0 | 0 | 0 | 0 | 0 | 0 | 0 | 0 | 0 | 0 | 0 | 0 | 0 | 0 | 0 | 0
Cc1cc(Nc2ncnc3ccc(-c4ccc(CNCCS(C)(=O)=O)o4)cc23)ccc1Oc1ccn2ncnc2c1 [ARRY-380 (analog )] (2.5 µM) | 0 | 0 | 0 | 0 | 0 | 0 | 0 | 0 | 0 | 0 | 0 | 0 | 0 | 0 | 0 | 0 | 0 | 0 | 0 | 0
CN(C)CCC=C1c2ccccc2CCc2ccccc21 [Amitriptyline (hydrochloride)] (2.5 µM) | 0 | 0 | 0 | 0 | 0 | 0 | 0 | 0 | 0 | 0 | 0 | 0 | 0 | 0 | 0 | 0 | 0 | 0 | 0 | 0
CC(C)(C)n1nc(Cc2ccccc2O)c2c(N)ncnc21 (10 µM) | 0 | 2 | 0 | 1 | 0 | 0 | 0 | 0 | 0 | 0 | 0 | 0 | 0 | 0 | 0 | 0 | 0 | 0 | 3 | 0
COc1ccc2cc(-c3nc(-c4ccc([S+](C)[O-])cc4)[nH]c3-c3ccncc3)ccc2c1 (stereo not given) [Tie2 kinase inhibitor 1] (2.5 µM) | 0 | 0 | 0 | 0 | 0 | 0 | 0 | 0 | 0 | 0 | 0 | 0 | 0 | 0 | 0 | 0 | 0 | 0 | 0 | 0
O=C(Nc1cccc(Nc2ncc(Br)c(NCCc3cnc[nH]3)n2)c1)N1CCCC1 (10 µM) | 0 | 0 | 0 | 1 | 0 | 0 | 0 | 0 | 0 | 0 | 0 | 0 | 0 | 0 | 0 | 0 | 0 | 0 | 2 | 3
CCOC(=O)N1C/C(=C/c2ccccc2F)C(=O)/C(=C\c2ccccc2F)C1 (2.5 µM) | 0 | 0 | 0 | 0 | 0 | 0 | 0 | 0 | 0 | 0 | 0 | 0 | 0 | 0 | 0 | 0 | 0 | 0 | 0 | 0

Exported with tabs: part of the list above
Compound	number of time points (PRKCA)	number of time points (PTK2)	number of time points (PTK2B)	number of time points (RAF1)	number of time points [1]	number of time points (RET)	number of time points [2]	number of time points (RIOK1)	number of time points (RIPK1)	number of time points (RIPK2)	number of time points (ROR2)	number of time points (RPS6KA1)	number of time points (SPHK1)	number of time points (SRC)	number of time points (STK24)	number of time points (STK38)	number of time points (SYK)	number of time points (TEC)	number of time points (TYK2)	number of time points (ULK3)
CN(C)CCC=C1c2ccccc2CCc2ccccc21 [Amitriptyline (hydrochloride)] (2.5 µM)	0	0	0	0	0	0	0	0	0	0	0	0	0	0	0	0	0	0	0	0
CC(C)(C)n1nc(Cc2ccccc2O)c2c(N)ncnc21 (10 µM)	0	2	0	1	0	0	0	0	0	0	0	0	0	0	0	0	0	0	3	0
